In PubChem BioAssay AID590 (National Center for Advancing Translational Sciences (NCATS), 2007):
Several values for one entry are separate records, joined by “and”; a condition that tells them apart may be missing. Equal entries are not always repeated. The whole screen tested about 59,000 compounds, of which about 6,500 (11%) were called active. Inconclusive means that the source gave no clear call. Such entries were picked first, then a sample of the others. Rule as the data show it: active = max dye-equivalent concentration above about 10 nM; inconclusive = mostly about 1.1 nM to 9.6 nM; inactive = weaker than that. Some structures have more than one record in an assay (separate samples or runs), and their calls can disagree.

Assay: qHTS Assay for Spectroscopic Profiling in A350 Spectral Region
Conditions: Compound autofluorescence, 340/450 nm, Alexa 350 dye-equivalents; stronger effect = higher value

SMILES	max dye-equivalent concentration
O=C(c1cccs1)c1coc2ccc(O)c(CN3CCOCC3)c12	inactive
Cc1ccc(S(=O)(=O)NCCCNS(C)(=O)=O)cc1	inconclusive: 1.1e-09 M
COc1ccc2cnn(Cc3ccccc3)c(=O)c2c1OC	inconclusive: 2.4e-09 M
COc1cc(-c2nn3c(-c4ccccn4)nnc3s2)cc(OC)c1OC	inconclusive: 1.9e-09 M
Cc1cc(C)cc(C(=O)/C=C2\NC(=O)CS2)c1	inconclusive: 9.1e-09 M
O=C(c1c(O)c2ccccc2oc1=O)C1CCC1	inconclusive: 2e-09 M
O=C(C1CCN(S(=O)(=O)c2cccc3nsnc23)CC1)N1CCCc2ccccc21	active: 1.2e-08 M
Cc1cccc(Cn2c(C(C)O)nc3ccccc32)c1 (centres undefined)	inactive
COCCN(CC(=O)NCc1ccc(F)cc1)C(=O)CCC(=O)Nc1nccs1	inactive
COc1ccc(C2CC(=O)NC3=C2C(=O)CCC3)cc1Cl (centres undefined)	inconclusive: 2.5e-09 M
COC(=O)CC(=O)CSc1nc(C)cc(C)c1C#N	inconclusive: 9.8e-09 M
C/C(=N/NC(=O)c1ccncc1)c1ccccc1Cl	inactive
CCOC(=O)c1nnc2cc(-c3ccc(Br)cc3)nn2c1C	inconclusive: 4.7e-09 M
COc1cc(NS(=O)(=O)c2ccc(N)cc2)nc(OC)n1	active: 2.1e-07 M
CN(C)C(=O)N1CCC(C(=O)NC2CCCCCCC2)CC1	inconclusive: 1.6e-09 M
COc1cc2ccc(=O)oc2cc1O	active: 1.6e-05 M and active: 8.9e-06 M
Cc1nnc(C)n1/N=C/c1cccn1C	inactive
CN(C)C(=O)c1ccc(-c2cc(NCc3ccccc3)ncn2)cc1	inactive
CC1CN(c2ncnc3c2oc2ccccc23)CC(C)O1 (centres undefined)	inconclusive: 4.7e-09 M
N#CCc1nc2c3c4c(sc3ncn2n1)CCCC4	inactive

SMILES	max dye-equivalent concentration
Cc1cccc(CCN(Cc2cc3cccc(C)c3[nH]c2=O)C(=O)N2CCOCC2)c1	inactive
COc1ccc(C(=O)N2CCC[C@@]3(CCN(c4ncccn4)C3)C2)cc1	inactive
COc1ccc(-c2nnc(SCC(=O)NC(=O)NCc3ccco3)o2)cc1	inactive
Cc1ccc(Cl)cc1NC(=O)COC(=O)C1CCCC1	active: 4e-08 M
O=c1c(CCc2ccccc2)nc2cnc(Nc3ccccc3)nc2n1Cc1cccs1	inconclusive: 4e-09 M
O=C(c1cc(C(F)(F)F)cc(C(F)(F)F)c1)N1CCC2(CCCN(c3ncccn3)C2)CC1	inactive
Cc1ccc(C2C(C(=O)c3sc(C)nc3C)=C(O)C(=O)N2CCN(C)C)o1 (centres undefined)	inconclusive: 1.9e-09 M
C=CCOc1cccc(C2/C(=C(/O)c3ccc(F)cc3)C(=O)C(=O)N2CCN2CCOCC2)c1 (centres undefined)	inconclusive: 3.1e-09 M
COc1ccccc1-c1cncnc1NCc1cccnc1	inactive
Cn1c(=O)c(-c2ccccc2)nc2cncnc21	inactive
COc1ccc(Oc2ncc3nc(C)c(=O)n(Cc4ccc(F)cc4)c3n2)cc1	inconclusive: 2.1e-09 M
CC1(C)CC(=O)C=C(Nc2ccc(S(N)(=O)=O)cc2)C1	inconclusive: 1.3e-09 M
CCN(CC)S(=O)(=O)c1ccc2oc(C(=O)N3CCCCCC3)c(C)c2c1	inactive
Cn1nc(C(=O)NC2CCCCCC2)ccc1=O	inconclusive: 1.3e-09 M
CC(C)CC1N=C2c3ccccc3N=C(SCc3cc(=O)n4ccccc4n3)N2C1=O (centres undefined)	active: 3.1e-08 M
CCn1c2ccccc2c2nc3cc(OC)c(OC)cc3nc21	active: 9.6e-08 M
COc1cc(C(=O)N(Cc2cc3cc(C)ccc3[nH]c2=O)CC2CCCO2)cc(OC)c1OC (centres undefined)	inconclusive: 1.2e-09 M
CCOC(=O)CCCNC(=O)COC(=O)c1cc(C)cc(C)c1	inconclusive: 1.1e-09 M
Cn1c(=O)cc(SCC(=O)N2CCCC2)c2cc(Cl)ccc21	active: 1.2e-08 M
CSc1nc(N2CCN(CCO)CC2)c2sc3nc(-c4ccco4)c4c(c3c2n1)CCC4	inconclusive: 1.3e-09 M

SMILES	max dye-equivalent concentration
CCCNc1ncnc2sc(C)c(C)c12	inconclusive: 6.1e-09 M
CCOC(=O)COc1ccc2c(c1)C(=O)CC1(CCN(C(C)=O)CC1)O2	active: 1.9e-06 M
CNc1nc(-c2ccc(N(C)C)cc2)nc2ccccc12	inconclusive: 2e-09 M
Cc1cc(C)cc(N2CC34C=CC(O3)C(C(=O)OCC(=O)NCc3ccco3)C4C2=O)c1 (centres undefined)	inconclusive: 1.1e-09 M
CCOC(=O)N1CCN(c2ncnc3c2cnn3-c2ccc(Cl)cc2)CC1	inconclusive: 6.1e-09 M
Cc1cccc(-c2cc3nc(C)cc(NCCCN(C)C)n3n2)c1	inconclusive: 5.8e-09 M
CN(C)CCCNC(=O)c1ccc2[nH]c3ccccc3c2c1	inconclusive: 3.7e-09 M
Cn1cnnc1SCCn1c(N2CCCCC2)nc2c1c(=O)[nH]c(=O)n2C	inconclusive: 1.9e-09 M
N=c1c2c(-c3ccccc3)c(-c3ccccc3)n(Cc3ccco3)c2ncn1CCN1CCOCC1	inactive
CCN(CC)CCCN1C(=O)C(O)=C(C(=O)c2ccco2)C1c1ccc(C)o1 (centres undefined)	inconclusive: 5.2e-09 M
CC(C)c1ccccc1S(=O)c1ccccc1C(C)(C)O (centres undefined)	inactive
COC(=O)[C@@H]1[C@H]2C[C@H]3c4[nH]c5cc(OC)ccc5c4CCN3C[C@@H]2C[C@@H](OC(=O)c2cc(OC)c(OC)c(OC)c2)[C@@H]1OC	inconclusive: 2.9e-09 M
CC1=C(C(=O)O)N2C(=O)[C@@H](NC(=O)[C@@H](N)C3=CCC=CC3)[C@@H]2SC1	inconclusive: 8.9e-09 M
O=C(COCc1nc2ccccc2c(=O)[nH]1)NC1CCCC1	inactive
CC(=O)N1c2ccccc2NC2=C(C(=O)CCC2)C1c1cccnc1 (centres undefined)	inactive
Cc1oc(-c2ccc(Cl)cc2)cc1-c1nn2c(-c3ccco3)nnc2s1	inactive
O=C1CC(c2c[nH]c3ccccc23)C(=O)N1 (centres undefined)	inconclusive: 4.2e-09 M
CCn1c(SC(=O)NC2CCCCC2)nnc1-c1cccs1	inconclusive: 1.2e-09 M
CSc1snc(SCC(N)=O)c1C#N	inconclusive: 1.3e-09 M

Another view of part of the listing above.
SMILES | max dye-equivalent concentration
CC(C)c1ccccc1S(=O)c1ccccc1C(C)(C)O (centres undefined) | inactive
COC(=O)[C@@H]1[C@H]2C[C@H]3c4[nH]c5cc(OC)ccc5c4CCN3C[C@@H]2C[C@@H](OC(=O)c2cc(OC)c(OC)c(OC)c2)[C@@H]1OC | inconclusive: 2.9e-09 M
CC1=C(C(=O)O)N2C(=O)[C@@H](NC(=O)[C@@H](N)C3=CCC=CC3)[C@@H]2SC1 | inconclusive: 8.9e-09 M
